The list shows only some results of the screen, not a fair sample: it is rich in T/C values a quarter to a half above the control, in often repeated tests (any T/C) and in doses without a T/C. Further doses and runs are listed elsewhere. T/C gives the treated animals as a percentage of the vehicle group. Some doses have a count of surviving animals in place of a T/C: the source holds a T/C of zero for them, seemingly a mark for toxic or unscored doses. Some survivor counts are full or nearly so, which does not show that the dose was tolerated: survival well below the control is almost never listed, so the zero probably covers shortened survival too. Survivors were counted at the toxicity check, usually on the fifth day, unless a day is given; later deaths do not show. Schedule codes are those of the source, taken here to give the interval after Q, in days (D) or hours (H), and the number of doses after X. Some entries hold several experiments; the values are given in rising order. For survival time, this PubChem deposit counts one and a half times the control or more as active, and values a quarter to a half above the control carry no call in these data; other NCI protocols may use other cut-offs.
Tested on: BDF1 mice, P388 leukemia ip, median survival T/C
Assay: NCI In Vivo Anticancer Drug Screen. Data for tumor model P388 Leukemia (intraperitoneal) in B6D2F1 (BDF1) mice
Conditions: T/C endpoint: median survival time, higher T/C = longer survival
Summary of the method: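 Vehicle-dosed animals serve as the reference; survival of compound-dosed, tumour-implanted mice is divided by it.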

[1] = dose: 0.39 mg/kg/injection, schedule: Q01DX009 (ip), vehicle: saline
[2] = dose: 12.5 mg/kg/injection, schedule: Q01DX009 (ip), vehicle: saline with Tween-80
[3] = dose: 200.0 mg/kg/injection, schedule: Q04DX003 (ip), vehicle: saline
[4] = dose: 200.0 mg/kg/injection, schedule: Q04DX003 (ip), vehicle: saline with Tween-80
[5] = dose: 50.0 mg/kg/injection, schedule: Q01DX009 (ip), vehicle: Klucel (hydroxypropylcellulose) (HPC)
[6] = dose: 12.5 mg/kg/injection, schedule: Q01DX009 (ip), vehicle: saline
[7] = dose: 25.0 mg/kg/injection, schedule: Q01DX009 (ip), vehicle: saline
[8] = dose: 50.0 mg/kg/injection, schedule: Q01DX009 (ip), vehicle: saline
[9] = dose: 100.0 mg/kg/injection, schedule: Q01DX009 (ip), vehicle: saline
[10] = dose: 400.0 mg/kg/injection, schedule: Q04DX003 (ip), vehicle: saline
[11] = dose: 400.0 mg/kg/injection, schedule: Q01DX009 (ip), vehicle: Klucel (hydroxypropylcellulose) (HPC)

CC1CC[N-]CC1.CC1CC[N-]CC1.CC1CC[N-]CC1.CC1CC[N-]CC1.[Pt+4]
T/C [1]: 125 % of control
survivor count [1]: 6 of 6
survivor count (dose: 4.0 mg/kg/injection, schedule: Q01DX009 (ip), vehicle: saline): 2 of 6
survivor count (dose: 6.25 mg/kg/injection, schedule: Q04DX003 (ip), vehicle: saline): 1 of 6
survivor count (dose: 8.0 mg/kg/injection, schedule: Q01DX009 (ip), vehicle: saline): 0 of 6
survivor count (dose: 12.5 mg/kg/injection, schedule: Q04DX003 (ip), vehicle: saline): 0 of 6
survivor count (dose: 16.0 mg/kg/injection, schedule: Q01DX009 (ip), vehicle: saline): 0 of 6
survivor count (dose: 32.0 mg/kg/injection, schedule: Q01DX009 (ip), vehicle: saline): 0 of 6

O=c1c2cccc3cccc(c32)c2nc3ccccc3n12
T/C (dose: 9.0 mg/kg/injection, schedule: Q01DX009 (ip), vehicle: saline with Tween-80): 125 % of control

CCN(CC)CCNc1ccc(COC(=O)NC)c2sc3ccccc3c(=O)c12
T/C (dose: 3.13 mg/kg/injection, schedule: Q01DX009 (ip), vehicle: saline with Tween-80): 132 % of control
survivor count [2]: 5 of 6

CCCCNC1=C(N2CC2)C(=O)C(NCCCC)=C(N2CC2)C1=O
T/C (dose: 2.5 mg/kg/injection, schedule: Q01DX009 (ip), vehicle: saline): 142 % of control
T/C (dose: 10.0 mg/kg/injection, schedule: Q01DX009 (ip), vehicle: saline): 149 % of control

CCCCNC(C)(C)C(=O)c1cccs1
survivor count [3]: 4 of 6

CN(C)CCC(=O)C(=Cc1ccc(Cl)c(Cl)c1)C(=O)CCN(C)C
survivor count (dose: 200.0 mg/kg/injection, schedule: Q01DX005 (ip), vehicle: saline): 3 of 5

C#CCOCC(CCl)OC(=O)Nc1ccccc1 (configuration not stated)
survivor count [4]: 6 of 6

Cc1ccc(C)c(CCN)c1
survivor count (dose: 100.0 mg/kg/injection, schedule: Q01DX009 (ip), vehicle: saline with Tween-80): 4 of 6

CC(C)(C)c1ccc(OCc2cnc[nH]2)cc1
survivor count (dose: 200.0 mg/kg/injection, schedule: Q01DX001 (ip), vehicle: saline): 1 of 6
survivor count (dose: 400.0 mg/kg/injection, schedule: Q01DX001 (ip), vehicle: saline): 0 of 6

CCCCCCC(C)NCC(O)COc1cccc(C)c1 (configuration not stated)
T/C (dose: 6.25 mg/kg/injection, schedule: Q01DX009 (ip), vehicle: Klucel (hydroxypropylcellulose) (HPC)): 130 % of control
survivor count [5]: 5 of 6

COc1cc([N+](=O)[O-])c(C)cc1NC(=O)c1ccc(OC)c(OC)c1
survivor count [6]: 6 of 6

Cn1c(CC(O)(C(F)(F)F)C(F)(F)F)cc2ccccc21
survivor count (dose: 200.0 mg/kg/injection, schedule: Q01DX001 (ip), vehicle: other): 6 of 6

O=C(C[n+]1ccc2ccccc2c1)c1ccc(Br)cc1
survivor count (dose: 112.5 mg/kg/injection, schedule: Q04DX003 (ip), vehicle: saline): 1 of 6
survivor count (dose: 115.0 mg/kg/injection, schedule: Q01DX009 (ip), vehicle: saline): 3 of 6
survivor count (dose: 170.0 mg/kg/injection, schedule: Q01DX009 (ip), vehicle: saline): 1 of 6
survivor count (dose: 225.0 mg/kg/injection, schedule: Q04DX003 (ip), vehicle: saline): 0 of 6

CS(C)=O.CS(C)=O.CS(C)=O.[Cl][Rh]([Cl])[Cl]
survivor count (dose: 6.25 mg/kg/injection, schedule: Q01DX009 (ip), vehicle: saline): 6 of 6
survivor count [6]: 6 of 6
survivor count [7]: 6 of 6
survivor count [8]: 6 of 6
survivor count [9]: 1 of 6 and 2 of 6
survivor count (dose: 200.0 mg/kg/injection, schedule: Q01DX009 (ip), vehicle: saline): 0 of 6
survivor count [3]: 2 of 6
survivor count [10]: 1 of 6

N#C/C(=C\c1cc(Cl)cc(Cl)c1O)c1nc2ccccc2[nH]1
survivor count (dose: 200.0 mg/kg/injection, schedule: Q01DX009 (ip), vehicle: saline with Tween-80): 6 of 6

CC(=O)/C(C)=C/C=O
T/C (dose: 2.0 mg/kg/injection, schedule: Q01DX009 (ip), vehicle: water): 127 % of control

c1ccc2c(c1)Cc1c(NC3=NCCO3)cccc1-2
survivor count [4]: 3 of 6

CCCCCCCOc1cccc(OCCCC[N+]2(CC)CCCCC2)c1
survivor count [6]: 1 of 6
survivor count [7]: 0 of 6

O=[N+]([O-])c1cc([N+](=O)[O-])c(Nn2c3ccccc3c3ccccc32)c([N+](=O)[O-])c1
survivor count [11]: 0 of 6
survivor count (dose: 400.0 mg/kg/injection, schedule: Q04DX003 (ip), vehicle: Klucel (hydroxypropylcellulose) (HPC)): 2 of 6

CSC1C(=O)Nc2ccc(Cl)cc21 (configuration not stated)
survivor count (dose: 600.0 mg/kg/injection, schedule: Q04DX003 (ip), vehicle: saline with Tween-80): 2 of 6

CC1=CC2=NC(=O)C(c3ccccc3)C(=O)N2C=C1 (configuration not stated)
survivor count (dose: 100.0 mg/kg/injection, schedule: Q04DX003 (ip), vehicle: Klucel (hydroxypropylcellulose) (HPC)): 6 of 6
survivor count (dose: 200.0 mg/kg/injection, schedule: Q04DX003 (ip), vehicle: Klucel (hydroxypropylcellulose) (HPC)): 6 of 6

Nc1ncnc2c1nnn2C1CC(CO)C(O)C1O (configuration not stated)
T/C (dose: 37.0 mg/kg/injection, schedule: Q01DX009 (ip), vehicle: saline with Tween-80): 142 % of control
T/C (dose: 225.0 mg/kg/injection, schedule: Q01DX009 (ip), vehicle: saline with Tween-80): 136 % of control

CCCC(=O)OCC1OC(n2cnc3c(=S)nc(N)[nH]c32)C(OC(=O)CCC)C1OC(=O)CCC (configuration not stated)
T/C (dose: 25.0 mg/kg/injection, schedule: Q04DX003 (ip), vehicle: saline with Tween-80): 146 % of control
T/C (dose: 37.5 mg/kg/injection, schedule: Q04DX003 (ip), vehicle: saline with Tween-80): 127 % of control

CCSc1ncc2cnccn12
T/C (dose: 3.0 mg/kg/injection, schedule: Q01DX009 (ip), vehicle: water, evaluated on day 21): 101 % of control
T/C (dose: 3.0 mg/kg/injection, schedule: Q01DX009 (ip), vehicle: water, evaluated on day 30): 98, 109, 126 % of control
survivor count (dose: 8.0 mg/kg/injection, schedule: Q01DX009 (ip), vehicle: water): 4 of 6
survivor count (dose: 25.0 mg/kg/injection, schedule: Q04DX003 (ip), vehicle: water): 4 of 6
survivor count (dose: 50.0 mg/kg/injection, schedule: Q04DX003 (ip), vehicle: water): 0 of 6
survivor count (dose: 100.0 mg/kg/injection, schedule: Q04DX003 (ip), vehicle: water): 0 of 6

CCCCC(CC)COC(=O)/C=C/C(=O)OCC(CC)CCCC (configuration not stated)
survivor count [11]: 6 of 6

O=[N+]([O-])c1ccc(N2CC2)c2c1no[n+]2[O-]
T/C (dose: 30.0 mg/kg/injection, schedule: Q04DX003 (ip), vehicle: saline with Tween-80): 140 % of control
T/C (dose: 60.0 mg/kg/injection, schedule: Q04DX003 (ip), vehicle: saline with Tween-80): 131 % of control

C=C(NC(=O)C(=C)NC(=O)c1csc(C2=NC3c4csc(n4)C4NC(=O)c5csc(n5)C(C(C)(O)C(C)O)NC(=O)C5CSC(=N5)/C(=C/C)NC(=O)C(C(C)O)NC(=O)c5csc(n5)C3(CC2)NC(=O)C(C)NC(=O)C(=C)NC(=O)C(C)NC(=O)C(C(C)CC)NC2C=Cc3c(C(C)O)cc(nc3C2O)C(=O)OC4C)n1)C(N)=O (configuration not stated)
T/C [5]: 140 % of control
T/C (dose: 100.0 mg/kg/injection, schedule: Q01DX009 (ip), vehicle: Klucel (hydroxypropylcellulose) (HPC)): 142 % of control
T/C (dose: 150.0 mg/kg/injection, schedule: Q01DX009 (ip), vehicle: Klucel (hydroxypropylcellulose) (HPC)): 133 % of control

COC(=O)c1cccc(OC)c1C(=O)OC
survivor count (dose: 400.0 mg/kg/injection, schedule: Q04DX002 (ip), vehicle: saline with Tween-80): 6 of 6

O=C(/C=C/c1ccc2c(c1)OCO2)/C=C/c1ccc2c(c1)OCO2
survivor count [8]: 5 of 6
survivor count [9]: 6 of 6
survivor count (dose: 300.0 mg/kg/injection, schedule: Q01DX009 (ip), vehicle: saline): 5 of 6
survivor count [10]: 6 of 6

C[Si](C)(OC(=O)N(CCCl)CCCl)O[Si](C)(C)OC(=O)N(CCCl)CCCl
T/C [2]: 147 % of control

— PubChem BioAssay AID328 (DTP/NCI, 2004)
